The values below come from patent US20190359711A1.

Assay [1] addresses T1, TMEW1 (TMEFF2-FL-ECD-His-Avitag) (human) (UniProt Q9UIK5).
T1 sequence: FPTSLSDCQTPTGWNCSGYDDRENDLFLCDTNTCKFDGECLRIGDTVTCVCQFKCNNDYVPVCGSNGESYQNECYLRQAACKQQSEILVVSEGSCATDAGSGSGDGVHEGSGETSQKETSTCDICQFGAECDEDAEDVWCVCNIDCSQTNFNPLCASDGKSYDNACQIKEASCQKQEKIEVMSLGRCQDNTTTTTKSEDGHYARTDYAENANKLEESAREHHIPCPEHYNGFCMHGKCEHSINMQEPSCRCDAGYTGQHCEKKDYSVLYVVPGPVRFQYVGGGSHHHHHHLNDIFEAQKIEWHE
The assay can be described thus: SPR (ProteOn).

In assay [2] the target is T2, TMEW19 (spTMEFF2(230-320)G3S-H6) (human) (UniProt Q9UIK5).
T2 sequence: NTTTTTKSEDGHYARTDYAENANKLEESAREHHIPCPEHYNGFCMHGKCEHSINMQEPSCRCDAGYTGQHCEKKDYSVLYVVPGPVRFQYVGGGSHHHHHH
In words: SPR (ProteOn).

No constants are given. Whether binding was seen depends on the method and setting. Some entries that bind do so weakly or less than the wild type. For some assays here: Sequences can lack the tags named with a protein.

B1: TMEB565 (antibody, human IgG4 S228P, kappa, F234A L235A, V domains shown)
VH: QVQLVQSGAEVKKPGSSVKVSCKASGGTFSSYYISWVRQAPGQGLEWMGGIIPISGRANYAQKFQGRVTITADESTSTAYMELSSLRSEDTAVYYCARDGYSSGRSTTYAFDYWGQGTLVTVSS
VL: EIVLTQSPGTLSLSPGERATLSCRASQSVATYYLAWYQQKPGQAPRLLIYGASSRATGIPDRFSGSGSGTDFTLTISRLEPEDFAVYYCQQYGYNPITFGQGTKVEIKR
Regarding B1, the binding result in assay [1] and in assay [2] was “binds” in each case.
